Assay results

The results are deposited in PubChem (AID1080; Emory University Molecular Libraries Screening Center, 2008).

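A counter-screen in EP4-overexpressing cells measuring cyclic AMP with a time-resolved FRET kit under weak PGE2 stimulation. Compounds were tested at 20 µM final. A low (about EC15) PGE2 dose was present. Percent cAMP induction as a fraction of the 1 µM PGE2 response, averaged over three replicates; a higher value means more cAMP.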

Values are in %. Common to all entries: measured here: EP4 receptor counter-screen. This is a side read-out of the assay, for part of the compounds, not drawn at random.

| SMILES | tested on / at | cAMP induction (%) |
|---|---|---|
| `COc1cccc(N=c2oc3c(C)ncc(CO)c3cc2C(=O)Nc2ccccc2OC)c1` | percent of 1 uM PGE2 response; plus low (about EC15) PGE2 agonist | 1.243 |
| `CCOC(=O)c1ccccc1NC(=O)CSc1ccccc1` | percent of 1 uM PGE2 response; plus low (about EC15) PGE2 agonist | 2.917 |
| `O=C(O)COc1cccc(NC(=O)c2ccccc2)c1` | percent of 1 uM PGE2 response; plus low (about EC15) PGE2 agonist | 2.873 |
| `O=C(CN1CCCCCCC1)Nc1ccc(Cl)cc1Cl` | percent of 1 uM PGE2 response; plus low (about EC15) PGE2 agonist | -18.6 |
| `Cc1sc2ncnc(SCc3ccco3)c2c1C` | percent of 1 uM PGE2 response; plus low (about EC15) PGE2 agonist | -7.9 |
| `CCOC(=O)c1c(NC(=O)COC(=O)Cn2cnc3ccccc32)sc2c1CCC(C)C2` (stereo not drawn) | percent of 1 uM PGE2 response; plus low (about EC15) PGE2 agonist | 13.91 |
| `N#Cc1c(N)nc2c3c(sc(=N)c2c1N)NC(=O)CC3c1c(F)cccc1Cl` (stereo not drawn) | percent of 1 uM PGE2 response; plus low (about EC15) PGE2 agonist | -1.45 |
| `COc1ccc(-c2nc(NC(C)=O)sc2-c2ccccc2)cc1` | percent of 1 uM PGE2 response; plus low (about EC15) PGE2 agonist | -2.853 |
| `CSc1ccccc1NC(=O)COc1ccc(Cl)cc1C` | percent of 1 uM PGE2 response; plus low (about EC15) PGE2 agonist | -9.233 |
| `N#Cc1cn(-c2ccccc2)nc1-c1cc2ccccc2oc1=O` | percent of 1 uM PGE2 response; plus low (about EC15) PGE2 agonist | -5.467 |
| `O=C(CO/N=C/c1ccccc1)N1c2ccccc2Oc2ccccc21` | percent of 1 uM PGE2 response; plus low (about EC15) PGE2 agonist | -15.06 |
| `Cc1nnc(SCC(=O)N2c3ccccc3C(C)(c3ccccc3)CC2(C)C)s1` (stereo not drawn) | percent of 1 uM PGE2 response; plus low (about EC15) PGE2 agonist | -6.12 |
| `Cc1ccc2c(c1)-c1nc3ccccc3cc1C2=NC1CCCCC1` | percent of 1 uM PGE2 response; plus low (about EC15) PGE2 agonist | -4.17 |
| `COc1ccc(Cl)cc1-n1c(C)ccc1C` | percent of 1 uM PGE2 response; plus low (about EC15) PGE2 agonist | -0.06333 |
| `CCc1ccc(C2=Nn3c(nnc3-c3cccs3)SC2)cc1` | percent of 1 uM PGE2 response; plus low (about EC15) PGE2 agonist | -6.42 |
| `O=C(CNCC1CCCCC1)Nc1ccccc1N1CCCCC1` | percent of 1 uM PGE2 response; plus low (about EC15) PGE2 agonist | -4.247 |
| `CCC1Oc2ccccc2N(Cc2ccccc2C)C1=O` (stereo not drawn) | percent of 1 uM PGE2 response; plus low (about EC15) PGE2 agonist | 0.9 |
| `O=C(CSc1nc2ccccc2o1)Nc1cc(C(F)(F)F)ccc1N1CCOCC1` | percent of 1 uM PGE2 response; plus low (about EC15) PGE2 agonist | 5.893 |
| `Cc1ccn2c(Nc3ccccc3C)c(-c3ccccn3)nc2c1` | percent of 1 uM PGE2 response; plus low (about EC15) PGE2 agonist | -2.557 |
| `Cc1ccc2nc(SCC(=O)NCc3ccco3)c(C)cc2c1` | percent of 1 uM PGE2 response; plus low (about EC15) PGE2 agonist | 3.437 |
| `CN(/N=C\c1ccc(O)c(O)c1)c1nc(-c2ccccc2)cc(-c2ccccc2)n1` | percent of 1 uM PGE2 response; plus low (about EC15) PGE2 agonist | -12.12 |
| `COc1ccc2c(-c3ccccc3)cc(N3CCOCC3)nc2c1` | percent of 1 uM PGE2 response; plus low (about EC15) PGE2 agonist | -7.62 |